{
  "sequences": {"note": "Protein sequences, listed by entry. Tags and fused reporters are not part of them. Residues count along the entry.", "UniProt P30533, residues 35-357": "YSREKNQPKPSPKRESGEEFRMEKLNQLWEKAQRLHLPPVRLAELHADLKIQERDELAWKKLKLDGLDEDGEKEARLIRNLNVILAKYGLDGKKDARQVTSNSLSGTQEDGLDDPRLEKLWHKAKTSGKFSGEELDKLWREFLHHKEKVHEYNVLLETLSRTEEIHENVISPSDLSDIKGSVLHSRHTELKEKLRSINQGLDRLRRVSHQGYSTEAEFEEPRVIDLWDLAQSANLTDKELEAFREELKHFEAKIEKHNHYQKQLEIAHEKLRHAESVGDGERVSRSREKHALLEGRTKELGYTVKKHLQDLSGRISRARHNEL", "UniProt Q07954, residues 20-4419": "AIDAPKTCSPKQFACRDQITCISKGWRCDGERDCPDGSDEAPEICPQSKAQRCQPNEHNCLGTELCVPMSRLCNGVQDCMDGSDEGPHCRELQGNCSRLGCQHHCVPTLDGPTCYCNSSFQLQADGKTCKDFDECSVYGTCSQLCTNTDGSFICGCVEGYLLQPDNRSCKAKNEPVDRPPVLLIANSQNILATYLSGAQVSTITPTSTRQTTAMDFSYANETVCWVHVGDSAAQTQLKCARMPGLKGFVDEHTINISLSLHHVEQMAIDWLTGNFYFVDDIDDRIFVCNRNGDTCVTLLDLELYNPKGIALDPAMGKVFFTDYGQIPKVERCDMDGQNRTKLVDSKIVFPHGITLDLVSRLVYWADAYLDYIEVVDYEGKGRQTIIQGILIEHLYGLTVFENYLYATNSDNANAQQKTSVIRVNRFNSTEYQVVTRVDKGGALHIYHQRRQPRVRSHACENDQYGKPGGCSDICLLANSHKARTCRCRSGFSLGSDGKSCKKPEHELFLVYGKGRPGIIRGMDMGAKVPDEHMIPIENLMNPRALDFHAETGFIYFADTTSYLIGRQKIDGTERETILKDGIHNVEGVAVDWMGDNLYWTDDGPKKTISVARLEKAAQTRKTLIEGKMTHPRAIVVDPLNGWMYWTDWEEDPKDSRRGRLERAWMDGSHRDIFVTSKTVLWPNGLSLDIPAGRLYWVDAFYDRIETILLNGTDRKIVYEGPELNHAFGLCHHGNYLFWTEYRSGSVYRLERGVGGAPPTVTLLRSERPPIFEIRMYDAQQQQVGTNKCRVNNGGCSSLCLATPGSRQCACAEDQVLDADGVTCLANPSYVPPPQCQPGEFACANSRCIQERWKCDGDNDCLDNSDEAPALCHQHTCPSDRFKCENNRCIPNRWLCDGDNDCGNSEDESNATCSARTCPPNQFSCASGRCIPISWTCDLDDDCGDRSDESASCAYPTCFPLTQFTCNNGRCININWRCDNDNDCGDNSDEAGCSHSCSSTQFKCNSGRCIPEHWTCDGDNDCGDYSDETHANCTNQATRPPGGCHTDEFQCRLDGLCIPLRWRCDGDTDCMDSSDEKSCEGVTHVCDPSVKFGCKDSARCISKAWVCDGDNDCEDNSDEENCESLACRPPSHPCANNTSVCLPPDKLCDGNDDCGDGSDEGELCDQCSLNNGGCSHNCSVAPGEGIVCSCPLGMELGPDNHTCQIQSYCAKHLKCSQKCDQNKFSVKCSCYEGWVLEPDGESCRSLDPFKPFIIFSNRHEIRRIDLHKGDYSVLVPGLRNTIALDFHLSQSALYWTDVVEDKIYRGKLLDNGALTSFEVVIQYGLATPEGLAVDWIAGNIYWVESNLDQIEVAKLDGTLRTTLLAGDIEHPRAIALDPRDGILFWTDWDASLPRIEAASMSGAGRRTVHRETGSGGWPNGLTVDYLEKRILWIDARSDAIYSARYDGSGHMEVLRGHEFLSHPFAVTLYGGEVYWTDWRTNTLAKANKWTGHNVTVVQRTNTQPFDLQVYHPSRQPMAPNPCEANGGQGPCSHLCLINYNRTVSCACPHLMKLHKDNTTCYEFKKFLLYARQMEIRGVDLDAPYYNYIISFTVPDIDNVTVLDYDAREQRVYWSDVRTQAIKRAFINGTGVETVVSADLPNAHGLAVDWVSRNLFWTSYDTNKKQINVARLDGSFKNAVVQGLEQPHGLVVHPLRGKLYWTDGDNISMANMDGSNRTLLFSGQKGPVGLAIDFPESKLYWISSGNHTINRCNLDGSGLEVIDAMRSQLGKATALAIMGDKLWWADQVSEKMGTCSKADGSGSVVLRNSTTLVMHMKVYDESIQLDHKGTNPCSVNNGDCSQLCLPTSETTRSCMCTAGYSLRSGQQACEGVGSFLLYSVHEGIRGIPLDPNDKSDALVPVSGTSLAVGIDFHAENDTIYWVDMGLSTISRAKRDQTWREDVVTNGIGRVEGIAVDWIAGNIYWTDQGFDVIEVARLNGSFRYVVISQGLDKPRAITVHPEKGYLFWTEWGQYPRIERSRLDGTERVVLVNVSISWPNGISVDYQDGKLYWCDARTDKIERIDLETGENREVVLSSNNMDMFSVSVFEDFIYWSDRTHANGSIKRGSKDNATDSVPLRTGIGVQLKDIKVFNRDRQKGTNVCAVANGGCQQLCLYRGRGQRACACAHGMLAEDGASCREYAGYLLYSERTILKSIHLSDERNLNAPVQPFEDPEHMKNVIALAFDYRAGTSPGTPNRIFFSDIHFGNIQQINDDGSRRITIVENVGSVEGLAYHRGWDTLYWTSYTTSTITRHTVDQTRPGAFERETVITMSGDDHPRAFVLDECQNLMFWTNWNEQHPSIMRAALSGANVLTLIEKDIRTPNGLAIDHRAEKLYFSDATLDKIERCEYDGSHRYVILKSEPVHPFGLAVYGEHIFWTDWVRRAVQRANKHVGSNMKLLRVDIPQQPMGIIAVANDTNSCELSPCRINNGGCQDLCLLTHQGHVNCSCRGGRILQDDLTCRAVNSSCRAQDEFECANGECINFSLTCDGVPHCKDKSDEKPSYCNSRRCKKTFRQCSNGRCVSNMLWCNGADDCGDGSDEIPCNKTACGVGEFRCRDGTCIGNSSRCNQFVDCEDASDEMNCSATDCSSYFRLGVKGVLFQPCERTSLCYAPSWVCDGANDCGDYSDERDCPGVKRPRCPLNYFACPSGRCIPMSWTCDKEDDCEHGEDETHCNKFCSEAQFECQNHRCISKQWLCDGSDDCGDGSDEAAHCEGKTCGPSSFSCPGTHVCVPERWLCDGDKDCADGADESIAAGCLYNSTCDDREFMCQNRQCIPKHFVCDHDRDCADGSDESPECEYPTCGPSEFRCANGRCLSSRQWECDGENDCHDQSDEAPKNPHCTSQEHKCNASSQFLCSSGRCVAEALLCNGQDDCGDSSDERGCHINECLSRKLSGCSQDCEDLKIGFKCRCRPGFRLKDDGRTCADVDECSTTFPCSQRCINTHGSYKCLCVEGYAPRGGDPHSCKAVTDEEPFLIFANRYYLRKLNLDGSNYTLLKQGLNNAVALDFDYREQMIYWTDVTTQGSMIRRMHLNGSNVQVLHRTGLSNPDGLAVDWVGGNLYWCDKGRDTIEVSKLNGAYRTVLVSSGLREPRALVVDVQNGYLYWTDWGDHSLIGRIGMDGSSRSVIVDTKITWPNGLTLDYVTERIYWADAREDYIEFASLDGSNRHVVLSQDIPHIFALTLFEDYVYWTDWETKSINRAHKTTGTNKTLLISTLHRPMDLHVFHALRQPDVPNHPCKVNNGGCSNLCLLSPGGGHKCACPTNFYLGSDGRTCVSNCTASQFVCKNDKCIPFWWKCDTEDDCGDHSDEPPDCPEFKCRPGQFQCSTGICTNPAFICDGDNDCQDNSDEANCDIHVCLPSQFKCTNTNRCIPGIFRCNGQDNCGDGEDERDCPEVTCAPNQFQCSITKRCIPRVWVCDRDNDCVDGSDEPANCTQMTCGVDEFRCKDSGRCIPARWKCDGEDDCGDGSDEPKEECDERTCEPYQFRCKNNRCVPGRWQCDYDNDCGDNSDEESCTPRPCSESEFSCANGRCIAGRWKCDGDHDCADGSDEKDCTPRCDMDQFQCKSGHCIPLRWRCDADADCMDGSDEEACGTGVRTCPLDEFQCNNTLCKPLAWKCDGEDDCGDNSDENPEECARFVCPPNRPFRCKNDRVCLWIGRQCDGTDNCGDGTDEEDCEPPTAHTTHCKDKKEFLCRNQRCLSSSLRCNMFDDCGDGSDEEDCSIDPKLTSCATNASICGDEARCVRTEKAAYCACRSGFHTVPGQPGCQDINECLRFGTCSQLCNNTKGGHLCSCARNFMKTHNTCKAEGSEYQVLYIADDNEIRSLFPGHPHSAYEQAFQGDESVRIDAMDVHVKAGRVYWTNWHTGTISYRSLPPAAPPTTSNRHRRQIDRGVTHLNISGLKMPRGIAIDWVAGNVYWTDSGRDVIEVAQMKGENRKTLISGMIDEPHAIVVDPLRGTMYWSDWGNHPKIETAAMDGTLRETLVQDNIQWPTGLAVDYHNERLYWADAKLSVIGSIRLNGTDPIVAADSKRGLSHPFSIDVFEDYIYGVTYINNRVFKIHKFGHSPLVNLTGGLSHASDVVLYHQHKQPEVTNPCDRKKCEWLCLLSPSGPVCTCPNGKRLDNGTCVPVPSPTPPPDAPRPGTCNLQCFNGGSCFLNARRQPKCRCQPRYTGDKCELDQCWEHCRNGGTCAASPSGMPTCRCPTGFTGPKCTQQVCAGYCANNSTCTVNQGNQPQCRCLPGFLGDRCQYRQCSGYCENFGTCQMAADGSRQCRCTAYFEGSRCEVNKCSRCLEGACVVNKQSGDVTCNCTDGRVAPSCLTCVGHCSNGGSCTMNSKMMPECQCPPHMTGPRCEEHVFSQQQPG"},
  "source": "paper PMC11599027",
  "key": {"[1]": {"biological_target": "recombinant human RAP protein (protein associated with the LRP1 receptor) (human) (UniProt P30533)", "assay": "SPR; both purified"}, "[2]": {"biological_target": "T1, receptor-activated alpha-2-macroglobulin (human) (UniProt P01023)", "T1 sequence": "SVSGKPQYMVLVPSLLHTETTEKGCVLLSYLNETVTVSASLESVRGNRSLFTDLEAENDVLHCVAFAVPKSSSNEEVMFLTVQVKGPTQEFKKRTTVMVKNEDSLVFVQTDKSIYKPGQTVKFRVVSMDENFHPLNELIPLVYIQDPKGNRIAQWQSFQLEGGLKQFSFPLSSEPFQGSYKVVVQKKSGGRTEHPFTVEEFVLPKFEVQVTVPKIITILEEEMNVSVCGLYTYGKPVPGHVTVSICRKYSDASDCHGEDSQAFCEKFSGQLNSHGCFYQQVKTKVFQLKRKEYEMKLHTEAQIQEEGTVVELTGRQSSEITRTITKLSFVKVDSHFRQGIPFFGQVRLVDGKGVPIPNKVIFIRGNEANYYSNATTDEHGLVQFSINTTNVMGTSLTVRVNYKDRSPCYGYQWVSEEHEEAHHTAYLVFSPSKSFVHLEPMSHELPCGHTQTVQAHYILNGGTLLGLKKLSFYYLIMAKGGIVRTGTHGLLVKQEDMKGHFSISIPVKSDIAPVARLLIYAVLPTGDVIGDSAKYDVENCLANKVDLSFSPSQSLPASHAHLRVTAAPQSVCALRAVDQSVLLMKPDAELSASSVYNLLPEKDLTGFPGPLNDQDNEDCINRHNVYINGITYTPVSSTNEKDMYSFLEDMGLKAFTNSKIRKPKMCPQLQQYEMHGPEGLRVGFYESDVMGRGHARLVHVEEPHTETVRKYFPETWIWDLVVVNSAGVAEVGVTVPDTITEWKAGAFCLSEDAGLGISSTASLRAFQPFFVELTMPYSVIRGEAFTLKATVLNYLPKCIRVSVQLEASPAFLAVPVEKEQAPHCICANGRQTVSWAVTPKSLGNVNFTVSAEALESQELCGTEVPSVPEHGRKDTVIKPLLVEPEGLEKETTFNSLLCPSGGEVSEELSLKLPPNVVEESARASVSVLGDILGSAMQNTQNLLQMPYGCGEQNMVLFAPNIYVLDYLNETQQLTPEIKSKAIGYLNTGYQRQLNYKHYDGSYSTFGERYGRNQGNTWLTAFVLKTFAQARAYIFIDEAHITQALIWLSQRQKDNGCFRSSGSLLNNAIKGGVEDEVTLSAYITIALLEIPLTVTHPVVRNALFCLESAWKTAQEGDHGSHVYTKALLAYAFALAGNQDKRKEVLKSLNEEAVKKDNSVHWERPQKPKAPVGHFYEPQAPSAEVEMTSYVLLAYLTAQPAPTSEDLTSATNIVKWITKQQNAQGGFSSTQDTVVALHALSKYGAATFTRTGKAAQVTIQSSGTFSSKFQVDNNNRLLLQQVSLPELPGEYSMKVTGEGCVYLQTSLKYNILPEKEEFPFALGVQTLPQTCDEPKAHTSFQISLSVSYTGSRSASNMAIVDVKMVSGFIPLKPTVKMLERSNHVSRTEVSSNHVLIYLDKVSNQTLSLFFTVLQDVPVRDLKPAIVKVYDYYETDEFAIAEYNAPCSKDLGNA", "assay": "affinity chromatography; only the target purified"}},
  "note": "No constants are given. Whether binding was seen depends on the method and setting. Some binding calls cover weakened binding; strength is not graded here.",
  "data": [
    {"substance": "LRP1 ectodomain (sLRP1) purified from human plasma (from UniProt Q07954-1 20-4419) (receptor)", "values": [
      {"measurement": "binding", "setting": "[1]", "result": "binds"},
      {"measurement": "binding", "setting": "[2]", "result": "binds"}
    ]}
  ]
}
